Some of the results follow. Further columns of the screen follow, without active or inactive calls. Most of these compounds were active or inconclusive in the main read-out, so they are no random draw. The note in brackets gives the kind of curve behind each potency; many fits are weak.
Assay: qHTS Assay for Modulators of Lamin A Splicing
Conditions: HeLa LMNA splicing GFP/RFP minigene ratio, 48 h
How it was run: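 Read-out is the ratio of GFP to DsRed2 object intensity, acquired by 488 nm laser-scanning cytometry on HeLa lamin A-EGFP minigene reporter cells. Compound incubation 48 hrs at 37 °C in Opti-MEM with 2% FBS; DMSO 0.5% final.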

[1] = measured here: GFP splicing reporter channel
[2] = measured here: RFP viability control channel

Compound | AC50 [1] | AC50 [2]
Cc1nn(Cc2ccccc2)c2sc(C(=O)N3CCN(Cc4ccc5c(c4)OCO5)CC3)cc12 | 8.91 µM [rising, partial curve] | 17.8 µM [rising, single point]
COc1ccccc1-c1nnc(Sc2nc([N+](=O)[O-])nn2C)o1 | 15.8 µM [falling, single point] | 25.1 µM [falling, single point]
O=C(Cn1cc(C(=O)C(F)(F)F)c2cc(Br)ccc21)N1CCOCC1 | – | 12.6 µM [rising, single point]
COc1ccccc1Nc1nc(Cl)c(C=O)s1 | – | 7.94 µM [rising, partial curve]
CSc1nc(N(C)NC(=O)c2ccc(Cl)cc2)c2ccccc2n1 | 8.91 µM [rising, partial curve, poor fit] | 3.16 µM [rising, full curve]
COc1c2c(cc3occ(-c4ccc5c(c4)OCO5)c(=O)c13)OC(C)(C)C=C2 | 17.8 µM [falling, single point] | 35.5 µM [falling, single point]
NCC(O)CN(c1ccccc1)c1ccccc1 (configuration not stated) | 2.82 µM [falling, partial curve] | –
CCCNC(=O)c1ccc(Cn2c(SCC(N)=O)nc3ccccc3c2=O)cc1 | 0.251 µM [falling, full curve] | –
O=C(c1cccc(Cl)c1)c1nn(-c2ccccc2)c(=O)cc1C(F)(F)F | 11.2 µM [falling, single point] | 0.0355 µM [falling, partial curve]
Cc1ccc2nc(-c3ccc(SCC(=O)Nc4cc(C)on4)nc3)[nH]c2c1 | – | 11.2 µM [rising, partial curve, poor fit]
COc1cc(/C=N/NC(=S)NC(C)C)ccc1OCC(=O)Nc1c(C)cc(C)cc1C | – | 3.55 µM [rising, full curve]
COc1ccccc1N=c1oc2cc(O)ccc2cc1C(N)=O | – | 1.12 µM [falling, partial curve]
O=C(CSc1nc(=O)n(CCN2CCOCC2)c2c1CCC2)Nc1ccc(F)cc1F | – | 1.12 µM [falling, single point]
COCCCn1c(SCC(=O)Nc2ccc(OC)cc2)nc2c(sc3ccccc32)c1=O | – | 0.178 µM [falling, full curve, poor fit]
CC(C)(C)c1cc(/C=C(\C#N)C(N)=S)cc(C(C)(C)C)c1O | 5.62 µM [falling, partial curve] | 2.82 µM [falling, full curve]
COc1ccc(NC(=O)c2cc(C)on2)cc1 | 0.631 µM [rising, single point] | –
CCCCC1=NC2(CCCC2)C(=O)N1Cc1ccc(-c2ccccc2-c2nn[nH]n2)cc1 | 0.251 µM [falling, partial curve, poor fit] | 0.398 µM [rising, full curve, poor fit]
CC(C)CCNC(=O)c1cc(-c2cccnc2)nc2ccc(S(=O)(=O)N3CCC(C)CC3)cc12 | 0.0398 µM [rising, full curve, poor fit] | –

3 neighbouring entries already listed, quoted:
Compound | AC50 [1] | AC50 [2]
COc1ccccc1Nc1nc(Cl)c(C=O)s1 | – | 7.94 µM [rising, partial curve]
CSc1nc(N(C)NC(=O)c2ccc(Cl)cc2)c2ccccc2n1 | 8.91 µM [rising, partial curve, poor fit] | 3.16 µM [rising, full curve]
COc1c2c(cc3occ(-c4ccc5c(c4)OCO5)c(=O)c13)OC(C)(C)C=C2 | 17.8 µM [falling, single point] | 35.5 µM [falling, single point]

The listing continues:

Compound | AC50 [1] | AC50 [2]
CCC(Sc1nc2ccsc2c(=O)n1-c1ccc(Cl)c(C)c1)C(=O)NCc1ccco1 (configuration not stated) | 35.5 µM [rising, single point] | 35.5 µM [rising, single point]
O=C(CC1(O)C(=O)Nc2ccccc21)c1ccccc1O (configuration not stated) | – | 6.31 µM [falling, partial curve]
O=C1[C@@H]2Cc3c([nH]c4ccccc34)[C@@H](c3ccccc3)N2C(=O)[C@@H]2Cc3c([nH]c4ccccc34)[C@@H](c3ccccc3)N12 | 1.41 µM [rising, partial curve] | 0.501 µM [rising, full curve]
CCOc1ccc(-c2cc(C(=O)NCCc3ccc(C)cc3)c3ccccc3n2)cc1 | 7.08 µM [falling, partial curve, poor fit] | 10 µM [falling, partial curve, poor fit]
COc1ccc(-c2coc3cc(O)cc(O)c3c2=O)cc1 | – | 28.2 µM [rising, single point]
COc1ccccc1OCCOCCOc1c(C)cc(C)cc1Br | – | 35.5 µM [rising, single point]
CC(=O)OCCN(C)c1cc(SC(C)C)c2nonc2c1[N+](=O)[O-] | – | 0.0355 µM [rising, full curve, poor fit]
Cn1cc(-c2nc3cnc(OCc4ccccc4)nc3n(CCC#N)c2=O)c2ccccc21 | 12.6 µM [falling, partial curve] | –
O=c1c2c(nc3n1CCCCC3)-c1ccccc1CC21CCCC1 | – | 17.8 µM [rising, single point]
CCN(CC)C(=O)c1ccc2c3c(cccc13)C(=O)N(CCc1ccc(OC)c(OC)c1)C2=O | – | 20 µM [rising, partial curve, poor fit]
COC(=O)c1ccccc1NC(=O)Cn1cnc2cc(C)c(C)cc21 | – | 22.4 µM [rising, partial curve]
O=C(NC1CCCCC1)c1ccc(CSc2nc3cccnc3n2Cc2ccccc2)cc1 | 0.794 µM [falling, full curve, poor fit] | –
CC(=O)Nc1cccc(NC(=O)CSc2nccn2Cc2ccccc2)c1 | – | 0.501 µM [falling, full curve]
Cc1cccc2nc(CSc3nc4ccc([N+](=O)[O-])cc4[nH]3)c(Br)n12 | 14.1 µM [rising, single point] | 17.8 µM [rising, partial curve, poor fit]
CCCn1c(=O)c(Cc2ccccc2)c(O)c2ccccc21 | 0.501 µM [falling, partial curve] | 0.501 µM [falling, partial curve]
CCOC(=O)c1c(N)n(-c2ccc(OCC)cc2)c2nc3ccccc3nc12 | – | 0.562 µM [falling, partial curve]
Cc1ccc(C2CC(=O)NC(SCC(N)=O)=C2C#N)s1 (configuration not stated) | 35.5 µM [rising, partial curve] | –
